Test results from patent US5436128A, “Assay methods and compositions for detecting and evaluating the intracellular transduction of an extracellular signal” (Salk Institute Biotechnology/Industrial Associates, priority 1993, dated 1995).

The chains behind the UniProt entries cited, without tags or fusion partners.
UniProt P20309, whole entry: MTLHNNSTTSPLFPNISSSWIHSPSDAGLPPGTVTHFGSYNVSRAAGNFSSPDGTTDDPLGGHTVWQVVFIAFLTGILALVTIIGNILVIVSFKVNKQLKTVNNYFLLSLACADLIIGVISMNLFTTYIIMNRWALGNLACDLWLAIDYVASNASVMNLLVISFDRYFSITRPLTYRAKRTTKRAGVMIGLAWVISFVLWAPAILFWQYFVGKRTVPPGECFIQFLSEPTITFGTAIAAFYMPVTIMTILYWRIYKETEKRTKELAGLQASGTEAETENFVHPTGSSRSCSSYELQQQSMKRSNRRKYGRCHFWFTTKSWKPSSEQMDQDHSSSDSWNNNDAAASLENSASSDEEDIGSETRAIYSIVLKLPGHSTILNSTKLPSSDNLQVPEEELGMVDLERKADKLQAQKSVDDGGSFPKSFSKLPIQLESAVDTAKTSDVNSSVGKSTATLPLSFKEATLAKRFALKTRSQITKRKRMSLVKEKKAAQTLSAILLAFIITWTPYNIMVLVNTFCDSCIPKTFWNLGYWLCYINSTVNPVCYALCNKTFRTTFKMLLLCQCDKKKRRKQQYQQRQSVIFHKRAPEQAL

Tests used:
M1 receptor [1] = conditions: read-out: IC50 for displacement of specifically bound 3H-NMS, PC12 cells, 1 hr, 37° C.
M1 muscarinic receptor = M1 muscarinic receptor (Homo sapiens, UniProt P20309); assay: cell-based
M1 receptor [2] = target: M1 receptor (Homo sapiens, UniProt P20309); assay: biochemical

For `CN1[C@@H]2C[C@@H](OC(=O)[C@H](CO)c3ccccc3)C[C@H]1[C@@H]1O[C@@H]12` [scopolamine], the IC50 (M1 receptor [1]) was 5 nM, the IC50 (M1 muscarinic receptor) was 36 nM and the IC50 (M1 receptor [2]) was 4 nM.
